Measured values taken from the supplement of paper PMC3682954.
Where “and” joins values, the source holds several entries; their conditions need not be identical. Equal values may be shown once. Where a name gives a salt, the structure may show the parent alone. ± gives the standard deviation of the averaged measurements. The list shows a part of the results. Most values come without repeats; read them as rough.

Test system: RAW 264.7
Assay: HMGB1-induced TNF-alpha production relative to HMGB1-stimulated control; higher = more TNF-alpha secretion (less inhibition)
Details: stimulus: HMGB1 5 ug/ml, 18 h
[1] = compound concentration: 1 ug/ml

SMILES	HMGB1-induced TNF-alpha production (compound concentration: 3 uM)	HMGB1-induced TNF-alpha production [1] [%]
CC(=O)N[C@@H](Cc1c[nH]c2ccccc12)C(=O)OCc1cc(C(F)(F)F)cc(C(F)(F)F)c1	81.1%	–
Cc1ccc2c(c1)c1c3n2CCNC3CCC1 (stereo not drawn) [Pirlindole mesylate]	101%	–
CCN(c1nc(N)c(C(=O)NC(=N)N)nc1Cl)C(C)C [5-(N-Ethyl-N-isopropyl)amiloride]	77.5%	–
O=C(O)Cc1c[nH]c2ccc(O)cc12 [5-Hydroxyindolacetic acid]	105%	–
CN(C)CCC=C1c2ccccc2COc2ccccc21 [Doxepin]	104%	–
CN(C)CCC=C1c2ccccc2COc2ccccc21	82.3%	–
CN(C)CCC=C1c2ccccc2COc2ccccc21 [Doxepin hydrochloride]	77.6 ± 6.4%	–
CC(C)[N+](C)(CCOC(=O)C1c2ccccc2Oc2ccccc21)C(C)C	84.2%	–
CC(C)[N+](C)(CCOC(=O)C1c2ccccc2Oc2ccccc21)C(C)C [Propantheline bromide]	115 ± 6%	–
CN1CCC[C@@H]1Cc1c[nH]c2ccc(CCS(=O)(=O)c3ccccc3)cc12	81.5%	–
COc1ccccc1Oc1c(NS(=O)(=O)c2ccc(C(C)(C)C)cc2)nc(-c2ncccn2)nc1OCCO [Bosentan]	102 ± 6%	–
Nc1ccccc1S(N)(=O)=O [2-Aminobenzenesulfonamide]	87%	–
OCc1cccnc1	95.2% and 110%	–
NC[C@@H]1O[C@H](O[C@H]2[C@@H](O)[C@H](O[C@@H]3[C@@H](O)[C@H](N)C[C@H](N)[C@H]3O[C@H]3O[C@H](CO)[C@@H](O)[C@H](O)[C@H]3N)O[C@@H]2CO)[C@H](N)[C@@H](O)[C@@H]1O	91.7%	–
NC[C@@H]1O[C@H](O[C@H]2[C@@H](O)[C@H](O[C@@H]3[C@@H](O)[C@H](N)C[C@H](N)[C@H]3O[C@H]3O[C@H](CO)[C@@H](O)[C@H](O)[C@H]3N)O[C@@H]2CO)[C@H](N)[C@@H](O)[C@@H]1O [Paromomycin sulfate]	102 ± 6.1%	–
CC[C@]1(O)C[C@H]2CN(CCc3c([nH]c4ccccc34)[C@@](C(=O)OC)(c3cc4c(cc3OC)N(C=O)[C@H]3[C@@](O)(C(=O)OC)[C@H](OC(C)=O)[C@]5(CC)C=CCN6CC[C@]43[C@@H]65)C2)C1 [Vincristine]	44.3%	–
CC[C@]1(O)C[C@H]2CN(CCc3c([nH]c4ccccc34)[C@@](C(=O)OC)(c3cc4c(cc3OC)N(C=O)[C@H]3[C@@](O)(C(=O)OC)[C@H](OC(C)=O)[C@]5(CC)C=CCN6CC[C@]43[C@@H]65)C2)C1	157 ± 47%	–
CC[C@]1(O)C[C@H]2CN(CCc3c([nH]c4ccccc34)[C@@](C(=O)OC)(c3cc4c(cc3OC)N(C=O)[C@H]3[C@@](O)(C(=O)OC)[C@H](OC(C)=O)[C@]5(CC)C=CCN6CC[C@]43[C@@H]65)C2)C1 [Vincristine sulfate]	136%	–
COc1ccccc1OCC(O)CO (stereo not drawn)	84.6%	–

Random excerpt: two entries already listed, in no set order.
SMILES	HMGB1-induced TNF-alpha production (compound concentration: 3 uM)	HMGB1-induced TNF-alpha production [1] [%]
CC(C)[N+](C)(CCOC(=O)C1c2ccccc2Oc2ccccc21)C(C)C [Propantheline bromide]	115 ± 6%	–
CC[C@]1(O)C[C@H]2CN(CCc3c([nH]c4ccccc34)[C@@](C(=O)OC)(c3cc4c(cc3OC)N(C=O)[C@H]3[C@@](O)(C(=O)OC)[C@H](OC(C)=O)[C@]5(CC)C=CCN6CC[C@]43[C@@H]65)C2)C1	157 ± 47%	–

Later entries.

SMILES	HMGB1-induced TNF-alpha production (compound concentration: 3 uM)	HMGB1-induced TNF-alpha production [1] [%]
COc1ccccc1OCC(O)CO (stereo not drawn) [Guaifenesin]	102 ± 9.6%	–
Cc1cc(O)cc(O)c1 [Orcinol]	–	76.7
COc1ccc2c(CN(C)CCC#N)cc(=O)oc2c1	–	65.1
Cc1cc(=O)[nH]c(=S)[nH]1	99%	–
CC(=O)[C@H]1CC[C@H]2[C@@H]3C=CC4=CC(=O)CC[C@@]4(C)[C@@H]3CC[C@]12C [Dydrogesterone]	97.6%	–
COc1ccccc1N1CCN(CCCCN2C(=O)c3ccccc3C2=O)CC1 [NAN-190 hydrobromide]	105%	–
CN1[C@@H]2CC[C@H]1C[C@@H](OC(=O)c1c[nH]c3ccccc13)C2 [Tropisetron]	72.1%	–
CN1[C@@H]2CC[C@H]1C[C@@H](OC(=O)c1c[nH]c3ccccc13)C2	46.4%	–
CN1[C@@H]2CC[C@H]1C[C@@H](OC(=O)c1c[nH]c3ccccc13)C2 [Tropisetron HCl]	73%	–
Cc1cccc(C)c1OCC(C)N (stereo not drawn) [Mexiletine hydrochloride]	74%	–
Cc1cccc(C)c1OCC(C)N (stereo not drawn)	89.4%	–
Cc1cccc(C)c1OCC(C)N (stereo not drawn) [Mexiletene hydrochloride]	103%	–
COc1ccc(/C=C/C(=O)Nc2ccccc2C(=O)O)cc1OC	96.7 ± 10%	–
COc1ccc(/C=C/C(=O)Nc2ccccc2C(=O)O)cc1OC [Tranilast]	102 ± 8.8%	–
CO[C@H]1O[C@@H]2COC(c3ccccc3)O[C@H]2[C@H](O)[C@H]1O (single isomer, unassigned; (+)) [(+)-(4,6-O-Benzylidene)methyl-alpha-D-glucopyranoside]	–	63.1
CCOC(=O)C1=C(COCCN)NC(C)=C(C(=O)OC)C1c1ccccc1Cl (stereo not drawn)	82.8% and 92.4%	–
CCOC(=O)C1=C(COCCN)NC(C)=C(C(=O)OC)C1c1ccccc1Cl (stereo not drawn) [Amlodipine]	76.5 ± 14%	–
Oc1ccc(/C=C/c2cc(O)cc(O)c2)cc1 [Resveratrol]	79 ± 29%	–
Oc1ccc(/C=C/c2cc(O)cc(O)c2)cc1	118%	–
